Test results published in US20050043235A1.
These are yes or no findings as the source states them, for the method shown. Some binding calls cover weakened binding; strength is not graded here.

Protein sequences, listed by entry. Tags and fused reporters are not part of them. Residues count along the entry.
UniProt P35916, residues 25-329: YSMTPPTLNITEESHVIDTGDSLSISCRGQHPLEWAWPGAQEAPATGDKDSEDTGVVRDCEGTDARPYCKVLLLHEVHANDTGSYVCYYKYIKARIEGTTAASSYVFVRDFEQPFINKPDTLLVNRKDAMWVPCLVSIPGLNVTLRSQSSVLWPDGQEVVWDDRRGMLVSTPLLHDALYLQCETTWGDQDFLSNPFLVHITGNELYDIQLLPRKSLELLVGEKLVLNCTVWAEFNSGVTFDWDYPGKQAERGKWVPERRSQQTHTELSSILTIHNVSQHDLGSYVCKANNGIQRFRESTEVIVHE
UniProt P35968, residues 20-764: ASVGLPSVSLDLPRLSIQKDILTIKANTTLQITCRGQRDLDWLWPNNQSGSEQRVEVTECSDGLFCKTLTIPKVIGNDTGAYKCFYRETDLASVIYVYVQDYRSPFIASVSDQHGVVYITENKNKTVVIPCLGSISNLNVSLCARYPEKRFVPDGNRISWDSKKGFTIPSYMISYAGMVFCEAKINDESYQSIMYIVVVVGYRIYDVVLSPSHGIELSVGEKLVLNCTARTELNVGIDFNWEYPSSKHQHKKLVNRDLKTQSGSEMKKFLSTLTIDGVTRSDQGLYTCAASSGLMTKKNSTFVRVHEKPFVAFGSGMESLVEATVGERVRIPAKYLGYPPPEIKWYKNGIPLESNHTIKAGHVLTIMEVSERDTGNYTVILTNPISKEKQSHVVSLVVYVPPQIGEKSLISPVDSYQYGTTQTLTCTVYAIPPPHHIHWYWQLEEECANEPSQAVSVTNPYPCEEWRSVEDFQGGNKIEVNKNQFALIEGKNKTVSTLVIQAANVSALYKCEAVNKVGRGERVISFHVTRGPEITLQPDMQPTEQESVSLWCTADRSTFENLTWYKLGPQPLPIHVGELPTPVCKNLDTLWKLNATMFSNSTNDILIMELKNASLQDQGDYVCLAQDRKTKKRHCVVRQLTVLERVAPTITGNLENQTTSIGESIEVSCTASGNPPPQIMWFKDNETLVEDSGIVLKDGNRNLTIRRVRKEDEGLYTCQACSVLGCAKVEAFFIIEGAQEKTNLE

Assays:
[1] = target: soluble VEGFR-3-Ig fusion protein (UniProt P35916); test: receptor binding profile (precipitation with receptor-Ig), summary of Example 12
[2] = target: soluble VEGFR-2-Ig fusion protein (UniProt P35968); test: as above
[3] = target: T1, neuropilin-1-Ig (UniProt O14786); test: as above
T1 sequence (looked up): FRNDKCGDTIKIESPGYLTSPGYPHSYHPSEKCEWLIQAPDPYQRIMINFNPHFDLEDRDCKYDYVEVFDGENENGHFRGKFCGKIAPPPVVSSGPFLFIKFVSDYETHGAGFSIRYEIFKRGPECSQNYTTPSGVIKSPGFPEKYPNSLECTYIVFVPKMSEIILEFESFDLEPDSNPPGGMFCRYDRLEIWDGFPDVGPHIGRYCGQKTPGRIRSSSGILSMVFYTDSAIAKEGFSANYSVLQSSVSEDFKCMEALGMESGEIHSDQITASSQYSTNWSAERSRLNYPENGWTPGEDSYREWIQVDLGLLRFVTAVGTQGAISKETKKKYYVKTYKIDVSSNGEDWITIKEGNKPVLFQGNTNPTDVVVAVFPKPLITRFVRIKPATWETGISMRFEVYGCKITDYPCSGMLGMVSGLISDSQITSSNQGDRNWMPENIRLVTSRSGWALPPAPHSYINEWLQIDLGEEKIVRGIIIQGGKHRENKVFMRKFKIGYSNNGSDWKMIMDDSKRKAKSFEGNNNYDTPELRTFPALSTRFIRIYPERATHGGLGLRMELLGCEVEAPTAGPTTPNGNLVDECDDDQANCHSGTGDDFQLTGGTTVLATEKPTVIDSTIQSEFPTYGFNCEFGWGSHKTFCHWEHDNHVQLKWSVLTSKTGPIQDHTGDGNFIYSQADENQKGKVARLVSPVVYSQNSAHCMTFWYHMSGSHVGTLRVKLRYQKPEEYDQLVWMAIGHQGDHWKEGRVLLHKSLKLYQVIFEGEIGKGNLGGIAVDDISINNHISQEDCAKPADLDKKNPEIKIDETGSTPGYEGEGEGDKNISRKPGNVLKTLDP

[4] = target: T2, neuropilin-2-Ig (UniProt O60462); test: precipitation of 35S-labelled protein from 293T medium with neuropilin-2-Ig, SDS-PAGE (FIG. 5A)
T2 sequence (looked up): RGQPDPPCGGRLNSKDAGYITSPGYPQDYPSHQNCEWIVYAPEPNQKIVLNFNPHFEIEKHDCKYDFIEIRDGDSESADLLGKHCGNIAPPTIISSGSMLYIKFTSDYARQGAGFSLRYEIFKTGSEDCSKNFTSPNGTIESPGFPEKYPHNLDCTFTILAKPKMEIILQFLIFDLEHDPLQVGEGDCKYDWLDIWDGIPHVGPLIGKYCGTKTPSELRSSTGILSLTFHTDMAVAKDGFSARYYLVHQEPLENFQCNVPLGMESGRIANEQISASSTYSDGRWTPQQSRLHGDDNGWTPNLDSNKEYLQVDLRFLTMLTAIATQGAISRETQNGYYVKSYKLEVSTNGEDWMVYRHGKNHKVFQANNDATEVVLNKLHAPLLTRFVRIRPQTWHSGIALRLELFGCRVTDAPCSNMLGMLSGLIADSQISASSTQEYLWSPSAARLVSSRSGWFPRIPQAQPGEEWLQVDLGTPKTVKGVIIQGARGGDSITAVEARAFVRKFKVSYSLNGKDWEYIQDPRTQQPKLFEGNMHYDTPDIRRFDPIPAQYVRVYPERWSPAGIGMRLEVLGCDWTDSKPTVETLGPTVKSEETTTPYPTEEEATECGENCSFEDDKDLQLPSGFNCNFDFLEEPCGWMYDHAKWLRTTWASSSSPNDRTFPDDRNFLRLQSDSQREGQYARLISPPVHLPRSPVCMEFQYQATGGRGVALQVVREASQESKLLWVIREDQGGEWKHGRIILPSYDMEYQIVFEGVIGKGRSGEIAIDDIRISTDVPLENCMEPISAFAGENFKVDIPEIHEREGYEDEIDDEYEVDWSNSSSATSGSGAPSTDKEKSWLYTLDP

[5] = target: T1, neuropilin-1-Ig; test: precipitation of 35S-labelled protein from 293T medium with neuropilin-1-Ig, SDS-PAGE (FIG. 5A)
[6] = target: soluble VEGFR-3-Ig fusion protein (UniProt P35916); test: precipitation of 35S-labelled protein from 293T medium with VEGFR-3-Ig, SDS-PAGE (FIG. 5B)
[7] = target: soluble VEGFR-2-Ig fusion protein (UniProt P35968); test: precipitation of 35S-labelled protein from 293T medium with VEGFR-2-Ig, SDS-PAGE (FIG. 5B)

Measured: binding

B1: CA89, chimeric protein of the VEGF homology domain of VEGF-C and VEGF exon 6-8 encoded sequences (ligand)
chain: TEETIKFAAAHYNTEILKSIDNEWRKTQCMPREVCIDVGKEFGVATNTFFKPPCVSVYRCGGCCNSEGLQCMNTSTSYLSKTLFEITVPLSQGPKPVTISFANHTSCRCMSKLDVYRQVHSIIRRKSVRGKGKGQKRKRKKSRYKSWSVPCGPCSERRKHLFVQDPQTCKCSCKNTDSRCKARQLELNERTCRCDKPRR
binds: all assays above

B2: CA65, chimeric protein of the VEGF homology domain of VEGF-C and VEGF exon 7-8 encoded sequences (ligand)
chain: TEETIKFAAAHYNTEILKSIDNEWRKTQCMPREVCIDVGKEFGVATNTFFKPPCVSVYRCGGCCNSEGLQCMNTSTSYLSKTLFEITVPLSQGPKPVTISFANHTSCRCMSKLDVYRQVHSIIRRPCGPCSERRKHLFVQDPQTCKCSCKNTDSRCKARQLELNERTCRCDKPRR
binds: all assays above
